At least one peptide structure holds a part that was inferred or is arguable (an end, a ring closure or a residue). Non-standard residues stand in square brackets, D forms with d. Residues, ends and D or L forms follow the SMILES beside them. *: point of attachment. Cit = NC(=O)NCCC[C@H](N)C(=O)O; Acm = CC(=O)NC*
Legend:
67-LR = target: T1, 67-LR (Homo sapiens, UniProt P08865); test: Peptide screening for receptor interaction, cell adhesion and motility properties; assay type: cell-based; details: screening procedures
T1 construct: endogenous in cells
Source text: In addition, using residue exchange between the two peptides and molecular modelling to predict three-dimensional structure, we wished to further investigate the role of individual mEGF(33-42) residues in laminin antagonism. A logical series of peptides was synthesised and screened for receptor interaction, cell adhesion and motility properties (Table 1a and 1b).

[1] = test system: cell attachment to laminin through the 67-LR (T-47D, SK HEP-1); test: Laminin attachment assay; assay type: cell-based, human; details: relative to mEGF(33-42)
Method: Non-tissue culture grade 96-well plates, coated with 2.5 μg murine laminin in 50 μl CFS per well, were air-dried overnight at room temperature. […] After rinsing with CFS (100 μl), the plastic was saturated with casein (0.2% in CFS). Plates were incubated at room temperature for 45 min then washed extensively with CFS (3×100 μl).
After removal of culture media, cells were detached from monolayers by the action of EGTA (0.02% in CFS) at 37° C. The cells were then centrifuged at 800 g for 2 min and the pellet resuspended in DMEM (T-47D) or RPMI (SK HEP-1).
Cells, at a population density of 10^6 cells/ml, were then aliquoted (1 ml) into microfuge tubes containing the individual peptide sequences and incubated for 1 h at 37° C. The cells (100 μl aliquots) were then added to the pre-coated multi-well plates and incubated for a further 60 min. Incubation media were removed and the wells washed with CFS (3×100 μl) to rid the plates of non-adherent cells.
Attached cell numbers were evaluated spectrophotometrically at 620 nm after fixing with 10% formaldehyde and staining with crystal violet.
IC50 (concentration of unlabelled peptide required to produce 50% inhibition of radioligand binding) and EC50 (effective concentration for 50% inhibition of cell attachment) values were calculated using the Grafit curve-fitting programme (Erithacus Software, London, UK).

[2] = test system: Endothelial cells (SK HEP-1 and BRCE); test: Migration assay (colloidal gold track area); assay type: cell-based; details: 18 h
Method: The method used was basically as described by Albrecht-Buehler (1977). Briefly, coverslips (22×22 mm) were treated in 5% detergent (7×; ICN Biomedicals) and washed in alcohol to remove grease. After drying, they were immersed in gelatin solution (Sigma, 300 Bloom; 0.5 g in 300 ml distilled H2O) for 10 min. The coverslips were then dried by placing in a 70° C. oven for 45 min.
Colloidal gold suspension was prepared by adding 11 ml distilled H2O and 6 ml Na2CO3 (36.5 mM) to 1.8 ml AuHCl4 (14.5 mM). The mixture was heated to 95° C. at which point 1.8 ml of freshly prepared 0.1% formaldehyde solution was added; the temperature was maintained at 95° C. A suspension of colloidal gold was formed which was brown to absorbed light and blue to transmitted light.
The gold suspension, was then added to petri dishes containing individual coverslips and the plates incubated at 37° C. for 45 min. After washing with CFS (3×4 ml) to remove unattached gold particles, the coverslips were transferred to 6-well cluster dishes and UV sterilised. […]
The assays were examined using a Leica DM1RB phase contrast microscope and Q500MC image analysis system incorporating a JVC TK-1280E colour camera (Leica, Milton Keynes, UK). The track images of at least 30 cells were videocaptured and the area (representing migration response) determined for each. […]

CC[C@H](C)[C@H](NC(=O)[C@@H](NC(=O)[C@H](CSCNC(C)=O)NC(C)=O)C(C)C)C(=O)NCC(=O)N[C@@H](Cc1ccc(O)cc1)C(=O)N[C@@H](CO)C(=O)NCC(=O)N[C@@H](CC(=O)O)C(=O)N[C@@H](CCCNC(N)=O)C(=O)N[C@@H](CSCNC(C)=O)C(N)=O [peptide IV, AcC(Acm)-VIGYSGD-[Cit]-C-(Acm)-NH2] (Ac-C(Acm)VIGYSGD[Cit]C(Acm)-NH2)
potency as 67LR antagonist relative to mEGF(33-42) (67-LR): more potent than mEGF(33-42) | inhibition of cell attachment (adhesion) to laminin (EC50), in words [1]: increased both receptor binding and inhibition of attachment to laminin substrata | migration (motility) response: laminin agonist or antagonist [2]: retaining antagonist migratory response
